Reference: PubChem BioAssay AID2685 (National Center for Advancing Translational Sciences (NCATS), 2010)
Some of the results follow. The main result of the screen is listed elsewhere. These columns were measured beside it and carry no call. The list favours compounds with an active or inconclusive main result. Words in brackets tell the shape of the fitted curve; partial curves, single points and poor fits give uncertain potencies.

Assay: qHTS Assay for Lipid Storage Modulators in Drosophila S3 Cells;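 on cell number change: cells counted by Cell Tracker Red CMTPX staining in the red channel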
Conditions: BODIPY lipid droplet fluorescence, 18-24 h; for cell number change: measured here: cell count max response, cells fed with added oleic acid
Procedure, shortened: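 Drosophila S3 cells got compounds at several concentrations plus oleic acid (400 uM solution). Laser-scanning cytometry with 488 nm excitation read lipid droplets at 500-530 nm and cells at 575-640 nm. Percent activity was relative to 20 uM Triacsin C.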

[1] = measured here: cell number channel AC50, cells fed with added oleic acid
[2] = measured here: lipid fluorescence (Fed channel) AC50, cells fed with added oleic acid

SMILES | cell number change [%] | AC50 [1] | AC50 [2]
CC(=O)c1cccc(NC(=O)CSc2nc(C3CC3)nc3ccccc23)c1 | -34.1 | 32.6 µM [falling, single point] | 29.1 µM [falling, single point]
Cc1ccc(CNC(=O)c2cc3cc(Br)ccc3oc2=N)cc1 | 3.76 |  | 
COc1ccccc1-n1cnc(N)c1C(=O)c1ccccc1 | 32.3 | 7.31 µM [rising, partial curve] | 16.4 µM [falling, partial curve]
COc1ccnc(N=CNOCc2ccc(C)cc2)c1C#N | 20.7 |  | 
O=C(NCCCn1ccnc1)/C(=C/c1cccnc1)NC(=O)c1ccco1 | -29.4 | 0.0259 µM [falling, full curve, poor fit] | 0.00461 µM [falling, full curve, poor fit]
CCC(Oc1ccccc1)C(=O)O/N=C(\N)c1ccc(OC)c(OC)c1 (stereo unspecified) | -3.75 | 0.0058 µM [falling, full curve, poor fit] | 0.00461 µM [falling, full curve, poor fit]
Cc1cccc(C)c1NC(=O)CN(c1ccccn1)S(=O)(=O)c1ccc(F)cc1 | 10 |  | 1.64 µM [rising, partial curve]
Cc1ccc(C(C#N)c2ccc(C(=O)c3ccc(F)cc3)cc2)cc1 (stereo unspecified) | -26 |  | 23.1 µM [falling, single point]
CCc1ccc(CN(C)C(=O)c2cc(S(=O)(=O)N3CCOCC3)ccc2N2CCCC2)cc1 | 36.2 | 29.1 µM [rising, single point] | 
O=C(c1ccccc1)N(Cc1cccc(Br)c1)C1CCS(=O)(=O)C1 (stereo unspecified) | -1.65 |  | 
CCC(Sc1nc2ccsc2c(=O)n1Cc1ccc(C(=O)O)cc1)C(=O)Nc1ccc(C)c(Cl)c1 (stereo unspecified) | -29.1 |  | 
Cc1cc(Br)ccc1OCc1nc(-c2cccnc2)no1 |  | 2.59 µM [rising, partial curve] | 0.731 µM [rising, single point]
Cc1ccc(C(=O)Nc2ncnc3sc4c(c23)CCCCC4)cc1 | -15.1 |  | 29.1 µM [rising, single point]
NC(=O)c1c(NC(=O)c2ccc(S(=O)(=O)N3CCOCC3)cc2)sc2c1CCCCC2 | 0.633 |  | 0.164 µM [rising, full curve]
CC(C)CCN(C(=O)CNC(=O)c1cccs1)C(C(=O)NC1CCCC1)c1ccncc1 (stereo unspecified) | 5.34 |  | 
COc1ccc(Cn2nnnc2CN2CCCCCC2)cc1 | -40.3 | 29.1 µM [falling, single point] | 29.1 µM [falling, single point]
COc1ccc(NS(=O)(=O)c2ccc(OC)c(N(C)S(=O)(=O)c3ccc(Cl)cc3)c2)cc1 | 7.67 |  | 18.4 µM [rising, single point]
c1ccc(CSc2ncnc3c2cnn3-c2ccccc2)cc1 | -5.92 | 6.51 µM [falling, single point] | 6.51 µM [falling, single point]
CCC(C(=O)OCC(=O)Nc1cccc(OC)c1)c1ccccc1 (stereo unspecified) | -20.3 | 0.82 µM [falling, full curve, poor fit] | 0.146 µM [falling, full curve, poor fit]
N#CCC(=O)Nc1nc(-c2ccc3c(c2)OCCO3)cs1 |  |  | 0.224 µM [rising, full curve]
NC(=O)CC(NC(=O)Cc1cccc2ccccc12)c1ccc(NC2CCN(Cc3ccccc3)CC2)c([N+](=O)[O-])c1 (stereo unspecified) | -0.971 |  | 29.1 µM [falling, single point]
CCOc1ccc(/C=C2\SC(=S)N(C(C(=O)O)c3ccccc3)C2=O)cc1OC (stereo unspecified) | -3.84 |  | 0.13 µM [falling, full curve, poor fit]
Cc1ccc(-n2nnc(-c3cnc4ccccc4c3)n2)cc1 | -15 |  | 29.1 µM [falling, single point]
Cc1cc(NC(=O)CN2C(=O)NC(C)(c3ccc(OC(F)F)cc3)C2=O)no1 (stereo unspecified) | 55.6 | 29.1 µM [rising, single point] | 29.1 µM [rising, partial curve]
Cn1cccc1/C=N/NC(=O)c1ccc[n+]([O-])c1 |  |  | 0.517 µM [falling, single point]
COc1cccc(C(=O)N2CCN(S(C)(=O)=O)CC2)c1 | -90.6 | 18.4 µM [falling, partial curve] | 18.4 µM [falling, partial curve]
CCN(CC)CCSc1nc2ccccc2n1Cc1ccccc1 | -21.2 |  | 0.092 µM [falling, full curve, poor fit]

Four records drawn at random from those above:
SMILES | cell number change [%] | AC50 [1] | AC50 [2]
CCC(Oc1ccccc1)C(=O)O/N=C(\N)c1ccc(OC)c(OC)c1 (stereo unspecified) | -3.75 | 0.0058 µM [falling, full curve, poor fit] | 0.00461 µM [falling, full curve, poor fit]
COc1ccc(Cn2nnnc2CN2CCCCCC2)cc1 | -40.3 | 29.1 µM [falling, single point] | 29.1 µM [falling, single point]
O=C(c1ccccc1)N(Cc1cccc(Br)c1)C1CCS(=O)(=O)C1 (stereo unspecified) | -1.65 |  | 
NC(=O)CC(NC(=O)Cc1cccc2ccccc12)c1ccc(NC2CCN(Cc3ccccc3)CC2)c([N+](=O)[O-])c1 (stereo unspecified) | -0.971 |  | 29.1 µM [falling, single point]

(continued)

SMILES | cell number change [%] | AC50 [1] | AC50 [2]
O=C(CC(=O)N/N=C/c1ccc(O)cc1)N/N=C/c1ccc(O)cc1 |  | 6.51 µM [falling, single point] | 6.51 µM [falling, single point]
Cc1cccc(NC(=O)C2CCN(S(=O)(=O)c3c(C)[nH]c(=O)[nH]c3=O)CC2)c1 | 37.3 | 0.00517 µM [rising, full curve, poor fit] | 0.184 µM [rising, full curve]
CCOC(=O)c1c(C)[nH]c(C(=O)COC(=O)CSC)c1C | -9.76 |  | 29.1 µM [rising, single point]
CCCCN(C(=O)c1ccc(Cl)c([N+](=O)[O-])c1)c1c(N)n(CCC)c(=O)[nH]c1=O | -46.4 | 2.31 µM [falling, partial curve] | 0.326 µM [falling, full curve, poor fit]
CCn1cc(C(=O)OCC(=O)NCc2ccccc2Cl)c(=O)c2ccc(C)nc21 | 12.1 | 5.8 µM [rising, single point] | 
COc1nc(OCCNC(C)=O)nc(N(C)C)n1 | 8.2 |  | 29.1 µM [rising, single point]
Cc1ccc(S(=O)(=O)N2CCCOC2CNC(=O)C(=O)NCCCn2ccnc2)cc1 (stereo unspecified) | -3.77 |  | 2.06 µM [falling, partial curve, poor fit]
CCOc1ccc(S(=O)(=O)NCCC(=O)NCCc2ccc(C(C)C)cc2)cc1 | 2.91 |  | 0.651 µM [falling, single point]
COc1ccc(NC(=O)c2cccnc2)cc1 | 33.9 |  | 29.1 µM [rising, single point]
CC1(c2cccc(Br)c2)NC(=O)N(CC(=O)N2CCc3ccccc32)C1=O (stereo unspecified) | -15.7 |  | 0.231 µM [falling, full curve]
CC(=O)Nc1cc(NC(C)=O)cc(C(=O)OCC(=O)N(c2ccccc2)C2CCS(=O)(=O)C2)c1 (stereo unspecified) | 9.94 |  | 5.8 µM [rising, full curve, poor fit]
CC(C)(C)OC(=O)CNC(=O)c1[nH]cnc1C(=O)N[C@@H](CCCCNC(=O)OC(C)(C)C)C(=O)OC(C)(C)C | 17.9 |  | 9.2 µM [rising, partial curve, poor fit]
COc1ccc(OC)c(-c2csc(NC(=O)c3ccc(F)cc3)n2)c1 | -25.3 |  | 29.1 µM [falling, single point]
O=C(CN1C(=O)c2ccccc2S1(=O)=O)NCc1ccccn1 | -1.88 |  | 0.13 µM [falling, full curve, poor fit]
CNc1nc(N2CCc3ccccc32)ncc1F | -34.3 | 13 µM [falling, partial curve] | 16.4 µM [falling, single point]
COc1ccc(OC)c(Nc2ncnc3sc(-c4ccccc4)cc23)c1 | 12.3 |  | 0.461 µM [rising, single point]
O=C(O)Cc1ccc(-c2ccccc2)cc1 | 4.74 |  | 0.326 µM [falling, partial curve, poor fit]
C=CCc1ccccc1OCC(=O)NNC(=S)NCc1ccccc1 | -29.5 |  | 6.51 µM [falling, single point]
CCN(CC)C(=O)C[n+]1cccc(C(N)=O)c1 | 50.9 | 2.06 µM [rising, full curve, poor fit] | 4.11 µM [rising, partial curve, poor fit]
COc1ccc2c(=O)c(C(=O)NCCc3ccccc3)c[nH]c2c1 | -4.19 |  | 
CCNc1nc2nc3ccc(C)cn3c(=O)c2cc1C(=O)NCC1CCCO1 (stereo unspecified) | 17 |  | 0.58 µM [rising, single point]
Cc1ccc(C)c(S(=O)(=O)NCc2ccc(C(=O)N3CCCCC3C)cc2)c1 (stereo unspecified) |  | 6.51 µM [falling, single point] | 0.0291 µM [rising, full curve, poor fit]
O=c1c(-c2ccc(Cl)cc2)coc2c(CN3CCOCC3)c(O)ccc12 | -24.2 |  | 29.1 µM [rising, single point]
O=C(OCC(=O)N1CCc2ccccc21)c1ccc[n+]([O-])c1 | -30.8 | 0.0411 µM [falling, full curve] | 0.58 µM [falling, single point]
Clc1cccc(CN2CCc3c([nH]c4ccccc34)C2)c1Cl | -48.4 | 32.6 µM [falling, partial curve] | 29.1 µM [falling, single point]
Cn1c2c(c(=O)n(C)c1=O)C(c1cccc([N+](=O)[O-])c1)Nc1ccccc1O2 (stereo unspecified) | 15.7 |  | 1.46 µM [rising, full curve]
COc1cccc(OC)c1C(=O)NC(=S)Nc1ccc2c(c1)C(=O)N(C)C2=O | 500 | 6.51 µM [falling, single point] | 0.0517 µM [falling, full curve, poor fit]
